Results from article PMC7819943, “Rice protein-binding microarrays: a tool to detect cis-acting elements near promoter regions in rice”.
This is one part of the list.

Target: T1, OsSMF1 (Oryza sativa, UniProt Q6ZLB0 1-436)
T1 sequence: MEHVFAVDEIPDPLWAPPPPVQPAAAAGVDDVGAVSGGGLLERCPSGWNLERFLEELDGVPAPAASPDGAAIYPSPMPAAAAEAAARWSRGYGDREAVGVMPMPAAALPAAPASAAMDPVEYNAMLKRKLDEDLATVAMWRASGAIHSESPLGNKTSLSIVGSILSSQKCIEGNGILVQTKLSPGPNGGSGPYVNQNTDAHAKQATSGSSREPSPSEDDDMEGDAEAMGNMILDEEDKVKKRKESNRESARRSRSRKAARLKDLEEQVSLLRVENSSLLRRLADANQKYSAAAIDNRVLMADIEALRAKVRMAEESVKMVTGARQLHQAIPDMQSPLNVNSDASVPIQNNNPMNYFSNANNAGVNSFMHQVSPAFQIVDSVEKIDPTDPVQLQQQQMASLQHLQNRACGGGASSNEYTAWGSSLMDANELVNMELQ
Experiment: protein-binding microarray (RPBM); PBS, 2% BSA, 51.3 ng/ul salmon testes DNA, 50 uM zinc acetate, 200 nM TF, 25 C, 1 h; high values mean tight binding
Settings: protein: recombinant; tags: N-terminal polyhistidine and DsRed monomer fusion (pET32a); chain copies: 2; label: CyDye5-dUTP incorporated in the synthesized complementary strand; 3' TTTTT single-stranded linker to array surface; dsDNA, one strand shown
Summary of the method: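 Binding signal here means per-feature fluorescence intensity in arbitrary units. The values were read on an Axon 4000B scanner after a custom Agilent array, double-stranded by primer extension with Cy5-dUTP, was incubated with 200 nM protein at 25 °C for 1 h in PBS with 2% BSA, salmon testes DNA and 50 µM zinc acetate, then washed. The proteins were transcription factors with an N-terminal polyhistidine tag and DsRed, expressed in E. coli BL21-CodonPlus and purified on Ni–NTA.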

Going from “GTTTCATTAAATATAAACATTGGATATATATTGATAATATCGGAGTCACCTAGTGCAG” to “TTCGTCAAACATTGTGACCCGGATCACGTGGATCACATCGCGGAGTCACCTAGTGCAG”, the binding signal rises from 3660 fluorescence intensity (a.u.) to 4580 fluorescence intensity (a.u.).

Compared with “CGTAGAGGAATAACAATGGAACGTCATCCCTCTCTGTTCGCGGAGTCACCTAGTGCAG”, “TGGCCTTCTATAAAACGTGGCACCTCTCGCTCCTCCTCGCCGGAGTCACCTAGTGCAG” is higher in binding signal: 4120 fluorescence intensity (a.u.) for the first, 8820 fluorescence intensity (a.u.) for the second.

Compared with “ATTCAACCACTGTTTTCTCTGCATGAACCTCTGTCACCCTCGGAGTCACCTAGTGCAG”, “CCCTAGAAAACGATTTGTGTACAGTGCATGACAGGGACAGCGGAGTCACCTAGTGCAG” is higher in binding signal: 3210 fluorescence intensity (a.u.) for the first, 3390 fluorescence intensity (a.u.) for the second.

Going from “CCCTCGCCACCACATCGACACGCCGAGATCCGCCGTTGCACGGAGTCACCTAGTGCAG” to “AAGTAGCGATCTAGTCACGGTATTAGATGCGTCAACTCCACGGAGTCACCTAGTGCAG”, the binding signal rises from 4090 fluorescence intensity (a.u.) to 7350 fluorescence intensity (a.u.).

First: GTGTTGCTGACTGTAAATATAGACGAACTACCCCACACAACGGAGTCACCTAGTGCAG
Second: CTATGGTAGGTAGGGTTTTCGTGTTGCGAGGTTACAGGGGCGGAGTCACCTAGTGCAG
The binding signal of the first is higher: 3700 fluorescence intensity (a.u.) for the first, 3350 fluorescence intensity (a.u.) for the second.

Going from “AGGGGTGTGATGATGGTGGCGTCAAGTCATCGGCGATGGCCGGAGTCACCTAGTGCAG” to “TCACTCACAAGACGCGACGTTACTAACGAATGACCCAAGGCGGAGTCACCTAGTGCAG”, the binding signal falls from 4140 fluorescence intensity (a.u.) to 3760 fluorescence intensity (a.u.).

First: TAGTGGATCTCAGTGCCCACGGCGGCATGCCACGCGCCGGCGGAGTCACCTAGTGCAG
Second: AAGGTAGTAAGGCTCTTGCTGGTAACTGTCACCAACCAATCGGAGTCACCTAGTGCAG
The binding signal of the first is higher: 4640 fluorescence intensity (a.u.) for the first, 3660 fluorescence intensity (a.u.) for the second.

First: TAATTTCGTTAAGTCCATCATCGATTATGGATGTTTCTATCGGAGTCACCTAGTGCAG
Second: ACATCGGTTATGATGTAGATCATGGCACTATGTTTGTTCACGGAGTCACCTAGTGCAG
The binding signal of the first is higher: 26600 fluorescence intensity (a.u.) for the first, 25500 fluorescence intensity (a.u.) for the second.

Going from “TCTCTTCTCGACGGAGACACGCACTCACTCTCTCTCTCGCCGGAGTCACCTAGTGCAG” to “TCATCTGAAACCAATTTCCAAGCCACGTAAGAAGTTGATTCGGAGTCACCTAGTGCAG”, the binding signal rises from 4640 fluorescence intensity (a.u.) to 5140 fluorescence intensity (a.u.).

Compared with “CCTCCCTCACGCCAGAAGTATCCTGATGACACACACGGCGCGGAGTCACCTAGTGCAG”, “CCGCCTCGCCGCGTGCCTCTGGAACAATCTGGCGCTGCCGCGGAGTCACCTAGTGCAG” is lower in binding signal: 4470 fluorescence intensity (a.u.) for the first, 3700 fluorescence intensity (a.u.) for the second.

Going from “TAACTATAACGGCACGGTCATGCCGTTGGCAAATCCTGATCGGAGTCACCTAGTGCAG” to “ACGAAGAGAAGAAGGAAAAGAGATGGGTGATGACGTGGACCGGAGTCACCTAGTGCAG”, the binding signal rises from 3570 fluorescence intensity (a.u.) to 35700 fluorescence intensity (a.u.).

First: TCGTTCTCCACCGCACCTGATGGTACCGCATCGCCCGACGCGGAGTCACCTAGTGCAG
Second: GCACATACGTGTGTTTGTGTGTATATGTTGTACATATTTACGGAGTCACCTAGTGCAG
The binding signal of the first is higher: 6260 fluorescence intensity (a.u.) for the first, 3410 fluorescence intensity (a.u.) for the second.

Compared with “CCTGTCACATTGAACATTTGAACACCTGCATGAAGTATTACGGAGTCACCTAGTGCAG”, “CACGGGACAACTGACCGGCACGGCAGCACACGCCACCATTCGGAGTCACCTAGTGCAG” is lower in binding signal: 33900 fluorescence intensity (a.u.) for the first, 3340 fluorescence intensity (a.u.) for the second.

First: GGGCCGCAACACCGTGTCACATCCGATCTCTCCCCTTCCTCGGAGTCACCTAGTGCAG
Second: TCCTCCTCCTCGTCGTCGTCGGCGGCGGCGGATGGTGGATCGGAGTCACCTAGTGCAG
The binding signal of the first is higher: 3590 fluorescence intensity (a.u.) for the first, 3160 fluorescence intensity (a.u.) for the second.

First: TCGCCGACGGGGACCTTGTGGGCGACGTGGAAGGAGTCGGCGGAGTCACCTAGTGCAG
Second: GCTCCTGTGGATGTAACGCCGCAGCTCTCTTGTGTACCACCGGAGTCACCTAGTGCAG
The binding signal of the first is higher: 3340 fluorescence intensity (a.u.) for the first, 3310 fluorescence intensity (a.u.) for the second.

Going from “TGCGCCGGTCGGAACGGGATCCACACGATATGACGTCAGGCGGAGTCACCTAGTGCAG” to “TTGGGAACTAATGGAGGGAGTATGACGCAATGTCAAGTCACGGAGTCACCTAGTGCAG”, the binding signal falls from 12200 fluorescence intensity (a.u.) to 5490 fluorescence intensity (a.u.).

Going from “AATATCTACCTCCCATGCGGCAGTGTGTCTCCGAGTGCTGCGGAGTCACCTAGTGCAG” to “GCTCTCCCGCCACTGCTCATGGTGACGACGCCATCGAGGTCGGAGTCACCTAGTGCAG”, the binding signal rises from 3230 fluorescence intensity (a.u.) to 3240 fluorescence intensity (a.u.).

Compared with “GCGTGCGGTGCGGAGCGCGGCCACGTCCGCCGCCGCCTCGCGGAGTCACCTAGTGCAG”, “TATGTTAATATGATATGACCTTATGACTCACCAGTAGTCCCGGAGTCACCTAGTGCAG” is higher in binding signal: 9620 fluorescence intensity (a.u.) for the first, 10800 fluorescence intensity (a.u.) for the second.

Compared with “TATGATGGAGGACGAATATGGGCTGTCATAGGCCTTCTTTCGGAGTCACCTAGTGCAG”, “ATGAATGATCGGAGATGAGAGCAAGGGTGACGTCAGCCATCGGAGTCACCTAGTGCAG” is higher in binding signal: 3640 fluorescence intensity (a.u.) for the first, 15200 fluorescence intensity (a.u.) for the second.

Going from “CGTTCCATTCCCGGCGTCGACCTCCGGCCGCTGTCACCGACGGAGTCACCTAGTGCAG” to “GCGCCGCCCGGTTCACACGGCCACACACGCACCGCCCTCTCGGAGTCACCTAGTGCAG”, the binding signal rises from 3880 fluorescence intensity (a.u.) to 4140 fluorescence intensity (a.u.).

Going from “AGCCTGGTGCCGTGATGTGCTGACGATGCTCCATGACGACCGGAGTCACCTAGTGCAG” to “GTTTTGAGATACATCATCATCAATCCGTAGTTTTGTAGTACGGAGTCACCTAGTGCAG”, the binding signal falls from 6540 fluorescence intensity (a.u.) to 3420 fluorescence intensity (a.u.).

Compared with “AGGCGCCTCACTCGAACCTTAATTTCGTGTTCTAGTTAGACGGAGTCACCTAGTGCAG”, “GGTTAAGTTGGGAGGAATTCTCCAAGTCACCTTGTGCCTGCGGAGTCACCTAGTGCAG” is lower in binding signal: 34200 fluorescence intensity (a.u.) for the first, 5440 fluorescence intensity (a.u.) for the second.

Compared with “GGGAAGAAAAGTTCGGTCAGATCCCACGTGTACGCTTAGCCGGAGTCACCTAGTGCAG”, “AGTCCAGCGAAGGGTGTGCGGCCGTGGAAAGTCTACTTGTCGGAGTCACCTAGTGCAG” is lower in binding signal: 11800 fluorescence intensity (a.u.) for the first, 3220 fluorescence intensity (a.u.) for the second.

Going from “TTGGATGTGATGTGATGTAATGGAAAGTTAAAAGTTTGGACGGAGTCACCTAGTGCAG” to “TGGCCACGTCCTCTTCTCCCCGAGCGGGTCTTATTCCCAGCGGAGTCACCTAGTGCAG”, the binding signal rises from 4080 fluorescence intensity (a.u.) to 6380 fluorescence intensity (a.u.).

Compared with “TGGCGCAAGATTATTCACACCGCACGCCAGGCAGGGCGCACGGAGTCACCTAGTGCAG”, “AGTGTAGTGGTGGTAGCCAGCCAAGAAACCATTTCTTTCCCGGAGTCACCTAGTGCAG” is higher in binding signal: 3140 fluorescence intensity (a.u.) for the first, 34000 fluorescence intensity (a.u.) for the second.

First: GGAAGAGCTCTGTGCATTCTCTTATCAGTTTACTGTTGCACGGAGTCACCTAGTGCAG
Second: TGTTTGCAGTCAGAACATGGATGACTCTGCTGCTCAAACTCGGAGTCACCTAGTGCAG
The binding signal of the first is lower: 3270 fluorescence intensity (a.u.) for the first, 3600 fluorescence intensity (a.u.) for the second.

First: GGAATCCACATAAATGACACTTCCTCTAAATTTTAATATACGGAGTCACCTAGTGCAG
Second: GAGTATCATATGTGTCAGATCCTAGGTATCACATGTACCGCGGAGTCACCTAGTGCAG
The binding signal of the first is higher: 24300 fluorescence intensity (a.u.) for the first, 4100 fluorescence intensity (a.u.) for the second.
